From patent US9463195B2, “Dissolution of amyloid fibrils by flavonoids and other compounds” (The Regents of the University of California, priority 2006, dated 2016)
For part of these data: At least one compound was matched to its structure with a doubt left. Some results were stated once for a whole list of compounds, not compound by compound.

Columns and labels:
[1] = target: T1, preformed human β-2 microglobulin fibrils (Homo sapiens, UniProt P61769); assay: Thioflavin T fluorescence high-throughput screen (slope assay score) for disruption of preformed fibrils; assay type: biochemical; conditions: slope of relative ThT fluorescence versus time in the screen
Procedure: As used herein, “slope assay score” means the slope of the relative fluorescence of thioflavin T versus time curve for a given compound in a thioflavin T fluorescence assay. A negative slope signifies a decrease in thioflavin T fluorescence over time.
The human β-2 microglobulin fibrils were prepared in vitro at 0.1 mg/mL protein in 25 mM phosphate, pH 2, 0.2 M NaCl without agitation for 1 week at 37° C., in the same manner as Ivanova et al. See Ivanova et al. (Proc Natl Acad Sci U.S.A. 2004 Jul. 20; 101(29):10584-9).
In our experiments, disruption of the fibrillar structure of preformed β-2 microglobulin fibrils was monitored by fluorescence. […] Thioflavin T binds specifically to human β-2 microglobulin fibrils, causing a red shift in the fluorescence excitation spectra of the dye to produce a peak in the fluorescence emission spectrum at 482 nm when the excitation wavelength is set at 444 nm. […]
In the fluorescence assay used here, preformed human β-2 microglobulin fibrils were mixed with a solution of 5 μM ThT in 50 mM glycine, pH 8.6 in a 3:14 ratio (final concentrations: 4.1 μM ThT, 41.2 mM glycine, 0.018 mg/mL β-2 microglobulin, 35 mM NaCl and 4.4 mM phosphate). Fluorescence was measured immediately after mixing (excitation wavelength set at 444 nm, emission wavelengths at 482, 490, and 502 nm) with a Molecular Devices FlexStation II. […]

[2] = target: T1, preformed human β-2 microglobulin fibrils; assay: Electron microscopy as a secondary screen of fibril disruption; assay type: biochemical; conditions: at the concentrations tested
Procedure: Electron microscopy was used to confirm the effects of, among others, compounds 22 and L18 on the fibrils. Compounds 22 and L18 were mixed with drug and solvent or solvent alone and were separately incubated with preformed human β-2 microglobulin fibrils for two weeks. Compound 22 was tested at three concentrations (1 mM, 100 μM, and 10 μM). Aliquots were taken immediately after mixing, at day 2, at day 5, day 7, and day 14. Samples were fixed to grids (made hydrophilic by glow-discharge) upon taking the aliquots, washed with distilled water, and stained with 1% uranyl acetate. Grids were examined in a Hitachi H-7000 transmission electron microscope operating at 75 kV. Images were collected on Kodak electron microscope film 4489.

Compound	slope / slope assay score range stated in text [1]	effect on fibrils by electron microscopy [2]
O=c1c(O)cc([C@H]2Oc3cc(O)cc(O)c3C[C@H]2O)cc2c([C@H]3Oc4cc(O)cc(O)c4C[C@H]3O)cc(O)c(O)c12 [theaflavin]	−0.06 to −0.07	–
O=c1c(O)cccc2cc(O)c(O)c(O)c12 [purpurogallin]	−0.06 to −0.07	–
CCCC(CCC)C(=O)O [valproate]	–	did not have an effect on fibrils
